In publication PMC12238516:
These are yes or no findings as the source states them, for the method shown. In cells and extracts the contact can be indirect. Some binding calls cover weakened binding; strength is not graded here.

How the values were obtained:
[1] = molecular target: T1, TRAF2, endogenous (human (endogenous in AGS)), Q12933; experiment: co-IP; IP with anti-TRAF2 antibody from total lysates of WT and CYLD^KO_1 AGS cells, uninfected or infected with H. pylori; immunoblot; details: remark: other sources report otherwise
T1 chain: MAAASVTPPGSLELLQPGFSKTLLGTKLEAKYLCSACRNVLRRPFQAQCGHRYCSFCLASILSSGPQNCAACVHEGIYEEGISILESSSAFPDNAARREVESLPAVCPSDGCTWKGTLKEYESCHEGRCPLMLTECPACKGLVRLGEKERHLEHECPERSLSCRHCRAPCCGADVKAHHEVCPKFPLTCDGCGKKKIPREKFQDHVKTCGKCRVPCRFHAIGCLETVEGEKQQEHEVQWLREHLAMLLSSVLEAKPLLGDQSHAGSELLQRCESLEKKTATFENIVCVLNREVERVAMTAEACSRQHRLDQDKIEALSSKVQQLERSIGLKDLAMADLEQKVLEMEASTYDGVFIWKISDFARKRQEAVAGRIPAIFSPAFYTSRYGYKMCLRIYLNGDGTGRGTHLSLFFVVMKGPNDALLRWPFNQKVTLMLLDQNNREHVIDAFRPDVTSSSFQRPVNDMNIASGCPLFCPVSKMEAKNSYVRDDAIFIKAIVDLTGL

[2] = molecular target: T2, TRAF2, endogenous (human (endogenous in AGS)) (UniProt Q12933); experiment: co-IP
T2 sequence: T1 chain

B1: A20 (tumor necrosis factor alpha-induced protein 3), endogenous, P21580 1-790 (protein)
chain: MAEQVLPQALYLSNMRKAVKIRERTPEDIFKPTNGIIHHFKTMHRYTLEMFRTCQFCPQFREIIHKALIDRNIQATLESQKKLNWCREVRKLVALKTNGDGNCLMHATSQYMWGVQDTDLVLRKALFSTLKETDTRNFKFRWQLESLKSQEFVETGLCYDTRNWNDEWDNLIKMASTDTPMARSGLQYNSLEEIHIFVLCNILRRPIIVISDKMLRSLESGSNFAPLKVGGIYLPLHWPAQECYRYPIVLGYDSHHFVPLVTLKDSGPEIRAVPLVNRDRGRFEDLKVHFLTDPENEMKEKLLKEYLMVIEIPVQGWDHGTTHLINAAKLDEANLPKEINLVDDYFELVQHEYKKWQENSEQGRREGHAQNPMEPSVPQLSLMDVKCETPNCPFFMSVNTQPLCHECSERRQKNQNKLPKLNSKPGPEGLPGMALGASRGEAYEPLAWNPEESTGGPHSAPPTAPSPFLFSETTAMKCRSPGCPFTLNVQHNGFCERCHNARQLHASHAPDHTRHLDPGKCQACLQDVTRTFNGICSTCFKRTTAEASSSLSTSLPPSCHQRSKSDPSRLVRSPSPHSCHRAGNDAPAGCLSQAARTPGDRTGTSKCRKAGCVYFGTPENKGFCTLCFIEYRENKHFAAASGKVSPTASRFQNTIPCLGRECGTLGSTMFEGYCQKCFIEAQNQRFHEAKRTEEQLRSSQRRDVPRTTQSTSRPKCARASCKNILACRSEELCMECQHPNQRMGPGAHRGEPAPEDPPKQRCRAPACDHFGNAKCNGYCNECFQFKQMYG
In the case of B1, the binding [1] is reported as “binds”.

B2: TIFA (TRAF-interacting protein with forkhead-associated domain), endogenous (protein, UniProt Q96CG3 1-184)
chain: MTSFEDADTEETVTCLQMTVYHPGQLQCGIFQSISFNREKLPSSEVVKFGRNSNICHYTFQDKQVSRVQFSLQLFKKFNSSVLSFEIKNMSKKTNLIVDSRELGYLNKMDLPYRCMVRFGEYQFLMEKEDGESLEFFETQFILSPRSLLQENNWPPHRPIPEYGTYSLCSSQSSSPTEMDENES
B2 was tested, and the binding [2] was “binds”.
